Measurements: article PMC3944073
Results are given in words; binding and its absence hold for the method and conditions named. Binding seen in cells or lysates may run through a third protein. Some entries that bind do so weakly or less than the wild type.

Chains of the proteins cited; added tags and fusions are not shown.
UniProt P26040: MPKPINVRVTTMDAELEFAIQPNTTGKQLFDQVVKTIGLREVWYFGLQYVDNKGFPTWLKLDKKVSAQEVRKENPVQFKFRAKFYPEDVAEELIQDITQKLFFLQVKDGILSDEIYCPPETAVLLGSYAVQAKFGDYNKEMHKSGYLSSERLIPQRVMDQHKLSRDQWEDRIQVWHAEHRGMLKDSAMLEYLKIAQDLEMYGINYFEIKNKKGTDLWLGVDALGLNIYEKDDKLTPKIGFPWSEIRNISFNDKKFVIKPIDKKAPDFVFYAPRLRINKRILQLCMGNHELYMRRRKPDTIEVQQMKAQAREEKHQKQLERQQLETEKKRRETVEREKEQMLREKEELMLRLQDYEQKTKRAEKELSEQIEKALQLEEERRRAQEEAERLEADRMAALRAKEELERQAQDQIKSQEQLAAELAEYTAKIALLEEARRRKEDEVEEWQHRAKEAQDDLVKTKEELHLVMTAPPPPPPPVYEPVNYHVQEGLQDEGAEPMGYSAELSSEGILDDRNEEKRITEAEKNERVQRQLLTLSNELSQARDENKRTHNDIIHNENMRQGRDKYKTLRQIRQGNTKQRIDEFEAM

Target: T1, β-dystroglycan (mouse (endogenous in C2C12)) (UniProt Q62165)
T1 sequence: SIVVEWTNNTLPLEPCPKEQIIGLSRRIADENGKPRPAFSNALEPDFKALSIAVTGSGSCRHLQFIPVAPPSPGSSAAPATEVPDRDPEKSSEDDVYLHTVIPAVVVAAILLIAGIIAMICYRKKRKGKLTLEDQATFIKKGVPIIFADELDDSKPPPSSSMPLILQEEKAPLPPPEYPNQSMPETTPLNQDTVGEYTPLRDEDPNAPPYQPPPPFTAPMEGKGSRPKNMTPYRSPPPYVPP
Assay: co-IP; C2C12 total extracts (1 mg) precipitated with anti-β-DG antibody or irrelevant IgG (IgG0) on protein G-agarose, overnight at 4°C; washes with 500 mM NaCl, 1% Triton X-100; Western blot for β-DG and ezrin

For ezrin (from UniProt P26040 1-586), the binding was “binds”.
